The target in test [1] is EIF4G5, yeast two-hybrid fusion (Trypanosoma brucei) (UniProt Q57VY5). Nature of the test: two-hybrid.
For test [2], the target named is T1, MKT1, yeast two-hybrid fusion (Trypanosoma brucei) (UniProt Q587E3).
T1 sequence: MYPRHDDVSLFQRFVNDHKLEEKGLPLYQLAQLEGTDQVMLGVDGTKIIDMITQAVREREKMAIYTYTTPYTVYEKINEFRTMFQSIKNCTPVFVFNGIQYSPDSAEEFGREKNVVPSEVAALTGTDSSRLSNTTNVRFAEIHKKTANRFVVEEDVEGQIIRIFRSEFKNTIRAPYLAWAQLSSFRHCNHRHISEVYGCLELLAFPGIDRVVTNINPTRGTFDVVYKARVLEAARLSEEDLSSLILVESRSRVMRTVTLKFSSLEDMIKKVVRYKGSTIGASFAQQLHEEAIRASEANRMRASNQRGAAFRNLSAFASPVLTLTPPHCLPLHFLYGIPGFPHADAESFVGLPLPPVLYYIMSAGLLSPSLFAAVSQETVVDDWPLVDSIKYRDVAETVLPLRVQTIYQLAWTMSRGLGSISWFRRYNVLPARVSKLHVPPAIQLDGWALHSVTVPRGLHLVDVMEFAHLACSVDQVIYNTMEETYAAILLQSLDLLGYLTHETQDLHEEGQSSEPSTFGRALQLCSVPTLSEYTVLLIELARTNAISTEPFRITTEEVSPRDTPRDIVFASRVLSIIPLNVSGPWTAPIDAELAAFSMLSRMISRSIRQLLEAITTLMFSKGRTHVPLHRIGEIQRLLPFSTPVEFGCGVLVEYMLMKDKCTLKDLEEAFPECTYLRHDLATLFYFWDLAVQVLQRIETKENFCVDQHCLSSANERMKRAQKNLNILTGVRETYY
The test can be described thus: two-hybrid.

These are yes or no findings as the source states them, for the method shown. A result given as binding can be weak or reduced; the word gives no strength. For some assays here: Tags and fused reporters may be left off the sequences shown.

In the case of “EIF4E6, yeast two-hybrid fusion (from UniProt Q57V43)”, the binding entry in test [1] is recorded as “binds”.

Take “EIF4G5, yeast two-hybrid fusion (from UniProt Q57VY5)”: the binding entry in test [2] is on record as “binds”.
